# Source: the supplement of paper PMC10849652
# Amino acid sequences for entries named in this document (tags omitted). A change or cut given only in a name is not applied to a line headed by its entry.
# UniProt Q75QN2, whole entry, looked up: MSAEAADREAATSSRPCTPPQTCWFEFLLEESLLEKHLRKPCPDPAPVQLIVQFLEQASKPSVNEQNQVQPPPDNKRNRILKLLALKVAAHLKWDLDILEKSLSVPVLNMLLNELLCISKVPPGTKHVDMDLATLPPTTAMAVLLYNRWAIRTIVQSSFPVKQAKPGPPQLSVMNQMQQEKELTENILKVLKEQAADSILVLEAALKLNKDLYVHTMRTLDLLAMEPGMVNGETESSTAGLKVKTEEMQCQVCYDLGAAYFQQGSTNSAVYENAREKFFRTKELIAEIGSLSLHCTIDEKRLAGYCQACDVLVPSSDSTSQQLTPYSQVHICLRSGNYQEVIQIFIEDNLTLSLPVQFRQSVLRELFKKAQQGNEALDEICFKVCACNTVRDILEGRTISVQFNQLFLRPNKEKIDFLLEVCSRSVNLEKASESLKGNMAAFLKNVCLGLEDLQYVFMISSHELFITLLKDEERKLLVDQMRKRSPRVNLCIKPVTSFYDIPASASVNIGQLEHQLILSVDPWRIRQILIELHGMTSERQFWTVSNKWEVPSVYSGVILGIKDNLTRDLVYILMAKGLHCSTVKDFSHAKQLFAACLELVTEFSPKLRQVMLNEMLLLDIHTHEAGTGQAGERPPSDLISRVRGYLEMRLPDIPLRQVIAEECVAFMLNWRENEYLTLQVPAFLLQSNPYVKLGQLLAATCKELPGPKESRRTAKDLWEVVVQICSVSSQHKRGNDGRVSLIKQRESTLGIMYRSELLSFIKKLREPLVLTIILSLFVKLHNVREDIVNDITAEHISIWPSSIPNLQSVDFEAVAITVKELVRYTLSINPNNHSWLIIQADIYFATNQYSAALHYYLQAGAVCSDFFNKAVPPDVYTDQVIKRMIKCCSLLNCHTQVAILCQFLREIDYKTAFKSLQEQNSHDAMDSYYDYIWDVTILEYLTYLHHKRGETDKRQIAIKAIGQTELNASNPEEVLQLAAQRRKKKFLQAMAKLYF
# UniProt Q9ULR0: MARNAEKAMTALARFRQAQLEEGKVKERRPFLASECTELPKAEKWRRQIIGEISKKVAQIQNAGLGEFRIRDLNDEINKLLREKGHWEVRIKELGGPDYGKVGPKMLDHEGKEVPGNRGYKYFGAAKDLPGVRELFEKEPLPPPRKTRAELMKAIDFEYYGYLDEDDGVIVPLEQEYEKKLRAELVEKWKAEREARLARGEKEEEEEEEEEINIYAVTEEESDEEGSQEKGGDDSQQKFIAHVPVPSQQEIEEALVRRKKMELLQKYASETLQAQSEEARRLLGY
# UniProt Q96J02: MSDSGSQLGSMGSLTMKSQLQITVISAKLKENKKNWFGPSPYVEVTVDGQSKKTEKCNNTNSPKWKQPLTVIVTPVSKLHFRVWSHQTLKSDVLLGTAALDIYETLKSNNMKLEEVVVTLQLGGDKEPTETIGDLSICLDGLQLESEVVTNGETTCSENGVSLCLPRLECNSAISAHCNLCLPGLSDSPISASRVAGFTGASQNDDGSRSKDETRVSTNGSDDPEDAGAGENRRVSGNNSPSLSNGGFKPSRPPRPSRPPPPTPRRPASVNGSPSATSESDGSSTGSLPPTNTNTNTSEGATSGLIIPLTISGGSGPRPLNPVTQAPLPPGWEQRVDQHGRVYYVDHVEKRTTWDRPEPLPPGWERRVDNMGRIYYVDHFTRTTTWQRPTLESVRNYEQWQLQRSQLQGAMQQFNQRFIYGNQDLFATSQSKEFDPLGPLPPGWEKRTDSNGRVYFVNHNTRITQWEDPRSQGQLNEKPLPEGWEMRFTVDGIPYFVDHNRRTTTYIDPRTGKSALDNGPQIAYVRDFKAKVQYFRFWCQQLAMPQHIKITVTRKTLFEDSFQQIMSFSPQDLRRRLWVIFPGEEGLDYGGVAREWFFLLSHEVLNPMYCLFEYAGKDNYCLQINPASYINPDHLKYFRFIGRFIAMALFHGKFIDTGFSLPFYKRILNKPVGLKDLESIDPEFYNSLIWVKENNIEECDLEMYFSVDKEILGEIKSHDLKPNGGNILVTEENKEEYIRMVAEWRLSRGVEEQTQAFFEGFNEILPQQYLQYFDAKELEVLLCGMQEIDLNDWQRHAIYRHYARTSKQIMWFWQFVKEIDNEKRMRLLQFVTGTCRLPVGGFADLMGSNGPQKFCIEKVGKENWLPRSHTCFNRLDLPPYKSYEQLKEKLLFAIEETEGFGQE
# UniProt Q9P2N6: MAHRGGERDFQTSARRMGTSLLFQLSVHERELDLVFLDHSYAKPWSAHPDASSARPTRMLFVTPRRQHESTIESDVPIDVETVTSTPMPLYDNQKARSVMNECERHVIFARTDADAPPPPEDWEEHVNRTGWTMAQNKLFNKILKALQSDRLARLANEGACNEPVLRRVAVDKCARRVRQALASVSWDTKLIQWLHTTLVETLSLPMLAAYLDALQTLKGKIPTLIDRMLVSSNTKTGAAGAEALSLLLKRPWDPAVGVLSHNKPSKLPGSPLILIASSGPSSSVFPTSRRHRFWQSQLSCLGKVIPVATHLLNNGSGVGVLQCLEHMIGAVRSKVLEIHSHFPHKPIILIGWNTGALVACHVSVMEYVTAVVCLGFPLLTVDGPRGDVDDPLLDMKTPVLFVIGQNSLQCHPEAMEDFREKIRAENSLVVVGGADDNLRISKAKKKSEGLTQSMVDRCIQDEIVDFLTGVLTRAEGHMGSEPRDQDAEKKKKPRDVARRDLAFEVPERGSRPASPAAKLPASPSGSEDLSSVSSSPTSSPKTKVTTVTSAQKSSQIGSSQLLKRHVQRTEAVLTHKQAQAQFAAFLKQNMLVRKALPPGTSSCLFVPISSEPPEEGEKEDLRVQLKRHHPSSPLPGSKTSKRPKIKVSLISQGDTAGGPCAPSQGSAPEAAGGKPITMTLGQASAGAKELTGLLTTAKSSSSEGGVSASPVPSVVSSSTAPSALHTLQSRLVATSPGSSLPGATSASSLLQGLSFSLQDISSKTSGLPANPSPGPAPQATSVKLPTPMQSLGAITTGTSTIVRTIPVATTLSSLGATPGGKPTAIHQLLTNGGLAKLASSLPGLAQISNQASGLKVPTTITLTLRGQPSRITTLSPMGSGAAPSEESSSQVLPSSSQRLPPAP
# UniProt Q15652: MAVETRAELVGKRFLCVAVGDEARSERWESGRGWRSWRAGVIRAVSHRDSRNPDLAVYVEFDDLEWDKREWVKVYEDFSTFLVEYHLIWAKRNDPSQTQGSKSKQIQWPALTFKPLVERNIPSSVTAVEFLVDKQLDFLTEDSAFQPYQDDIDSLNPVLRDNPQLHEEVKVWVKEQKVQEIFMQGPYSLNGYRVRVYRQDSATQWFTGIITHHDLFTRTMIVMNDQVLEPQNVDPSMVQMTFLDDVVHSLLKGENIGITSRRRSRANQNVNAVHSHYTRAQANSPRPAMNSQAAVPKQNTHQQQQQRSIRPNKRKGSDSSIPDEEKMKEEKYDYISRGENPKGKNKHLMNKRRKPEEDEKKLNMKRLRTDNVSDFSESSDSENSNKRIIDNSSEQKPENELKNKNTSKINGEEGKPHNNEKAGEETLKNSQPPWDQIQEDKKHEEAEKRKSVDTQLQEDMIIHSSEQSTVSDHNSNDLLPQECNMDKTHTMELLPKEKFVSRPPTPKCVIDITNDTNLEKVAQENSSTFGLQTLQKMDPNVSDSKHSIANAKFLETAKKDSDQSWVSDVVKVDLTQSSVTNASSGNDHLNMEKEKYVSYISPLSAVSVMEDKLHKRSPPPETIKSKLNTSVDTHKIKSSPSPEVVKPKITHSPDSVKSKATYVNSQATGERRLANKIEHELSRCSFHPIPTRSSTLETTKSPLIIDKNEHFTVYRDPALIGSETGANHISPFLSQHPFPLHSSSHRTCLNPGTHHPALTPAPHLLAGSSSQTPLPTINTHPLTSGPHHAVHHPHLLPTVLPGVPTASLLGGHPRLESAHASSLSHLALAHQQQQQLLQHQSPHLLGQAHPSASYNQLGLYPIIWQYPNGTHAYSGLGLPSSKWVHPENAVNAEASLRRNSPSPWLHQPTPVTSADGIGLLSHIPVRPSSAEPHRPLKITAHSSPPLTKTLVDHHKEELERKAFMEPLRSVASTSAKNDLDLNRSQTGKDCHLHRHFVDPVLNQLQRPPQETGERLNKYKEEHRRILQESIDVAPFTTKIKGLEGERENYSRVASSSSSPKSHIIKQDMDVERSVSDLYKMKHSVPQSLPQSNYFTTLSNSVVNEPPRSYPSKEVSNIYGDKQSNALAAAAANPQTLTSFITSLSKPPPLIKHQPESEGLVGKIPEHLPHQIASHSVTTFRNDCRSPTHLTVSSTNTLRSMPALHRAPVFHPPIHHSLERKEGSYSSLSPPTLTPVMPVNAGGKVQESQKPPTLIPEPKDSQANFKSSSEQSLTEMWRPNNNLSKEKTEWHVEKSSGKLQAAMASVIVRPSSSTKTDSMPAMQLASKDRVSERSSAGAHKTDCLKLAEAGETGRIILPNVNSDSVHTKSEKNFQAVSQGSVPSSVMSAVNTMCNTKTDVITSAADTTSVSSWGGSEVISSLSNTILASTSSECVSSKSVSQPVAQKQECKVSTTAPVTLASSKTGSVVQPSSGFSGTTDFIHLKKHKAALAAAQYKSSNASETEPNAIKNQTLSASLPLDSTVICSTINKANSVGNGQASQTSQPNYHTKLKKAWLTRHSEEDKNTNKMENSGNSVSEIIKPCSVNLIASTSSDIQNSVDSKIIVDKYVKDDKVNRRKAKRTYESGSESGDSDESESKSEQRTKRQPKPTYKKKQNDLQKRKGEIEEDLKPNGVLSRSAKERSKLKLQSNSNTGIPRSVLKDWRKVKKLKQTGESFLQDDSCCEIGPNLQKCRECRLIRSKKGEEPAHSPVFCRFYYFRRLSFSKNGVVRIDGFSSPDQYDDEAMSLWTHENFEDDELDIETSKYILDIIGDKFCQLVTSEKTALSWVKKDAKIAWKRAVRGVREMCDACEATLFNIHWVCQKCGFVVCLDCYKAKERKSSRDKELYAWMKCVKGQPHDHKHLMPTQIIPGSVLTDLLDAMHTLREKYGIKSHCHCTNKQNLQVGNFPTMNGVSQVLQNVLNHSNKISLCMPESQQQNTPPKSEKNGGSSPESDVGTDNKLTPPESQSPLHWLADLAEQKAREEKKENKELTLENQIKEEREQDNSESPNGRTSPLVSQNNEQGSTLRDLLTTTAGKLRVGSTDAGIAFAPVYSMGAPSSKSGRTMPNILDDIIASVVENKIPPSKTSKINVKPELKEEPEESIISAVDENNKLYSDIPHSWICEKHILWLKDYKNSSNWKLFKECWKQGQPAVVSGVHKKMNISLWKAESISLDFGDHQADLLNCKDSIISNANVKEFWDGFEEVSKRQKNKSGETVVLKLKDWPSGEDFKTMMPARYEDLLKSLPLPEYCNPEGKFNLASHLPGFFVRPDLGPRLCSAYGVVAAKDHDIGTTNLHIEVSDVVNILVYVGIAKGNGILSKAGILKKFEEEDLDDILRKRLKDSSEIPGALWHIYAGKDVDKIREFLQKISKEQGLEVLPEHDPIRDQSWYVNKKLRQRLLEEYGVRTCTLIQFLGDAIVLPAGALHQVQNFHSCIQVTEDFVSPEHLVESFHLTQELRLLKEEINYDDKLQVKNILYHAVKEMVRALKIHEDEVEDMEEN
# UniProt O75449: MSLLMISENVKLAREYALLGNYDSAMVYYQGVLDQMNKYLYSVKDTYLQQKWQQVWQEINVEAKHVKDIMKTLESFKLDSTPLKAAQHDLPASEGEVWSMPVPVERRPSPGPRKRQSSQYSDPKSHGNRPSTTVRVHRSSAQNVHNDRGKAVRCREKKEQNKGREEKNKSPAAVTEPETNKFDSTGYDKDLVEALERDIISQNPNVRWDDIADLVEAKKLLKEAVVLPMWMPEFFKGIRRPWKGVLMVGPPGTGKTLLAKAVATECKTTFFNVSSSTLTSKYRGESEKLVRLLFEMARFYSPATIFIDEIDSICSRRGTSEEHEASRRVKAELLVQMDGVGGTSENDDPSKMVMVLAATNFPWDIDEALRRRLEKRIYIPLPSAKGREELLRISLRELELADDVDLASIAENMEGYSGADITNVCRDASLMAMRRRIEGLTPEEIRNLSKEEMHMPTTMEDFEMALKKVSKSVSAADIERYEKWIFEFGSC
# UniProt Q92551: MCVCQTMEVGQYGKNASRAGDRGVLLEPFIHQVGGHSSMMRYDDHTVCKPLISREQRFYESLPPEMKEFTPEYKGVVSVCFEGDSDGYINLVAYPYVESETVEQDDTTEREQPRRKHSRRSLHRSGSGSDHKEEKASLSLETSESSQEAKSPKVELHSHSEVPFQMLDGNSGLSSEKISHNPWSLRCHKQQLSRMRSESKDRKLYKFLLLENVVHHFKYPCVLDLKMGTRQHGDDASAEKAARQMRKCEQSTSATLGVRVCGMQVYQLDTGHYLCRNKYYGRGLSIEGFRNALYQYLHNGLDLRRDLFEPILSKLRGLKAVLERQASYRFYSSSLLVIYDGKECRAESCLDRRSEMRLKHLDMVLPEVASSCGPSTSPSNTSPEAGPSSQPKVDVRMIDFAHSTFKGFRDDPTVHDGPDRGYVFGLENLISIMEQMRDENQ
# This is one part of the list.
# Legend:
# Assay in all cases: log2 fold change, soluble protein after heating vs DMSO (PISA); higher = thermal stabilisation; K562 lysate, 10 uM; active = over 0.2 and 3.5 SD of the protein, either way, in both replicates (recomputed)
# [1] = compound: CCCS(=O)(=O)Nc1ccc(F)c(C(=O)c2c[nH]c3ncc(-c4ccc(Cl)cc4)cc23)c1F [vemurafenib]
# Method in brief: (§1)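 Thermal stability, expressed as log-two fold change relative to solvent controls, is given from duplicates. Crude K562 extract in PBS pH 7.4 with 1 mM MgCl2, at 1 mg/mL protein, was treated with 10 μM compound for 30 min and heated in aliquots for 3 min across 48°C-58°C. After pooling, adjustment to 0.5% NP-40 at 4°C and centrifugation at 21,000xg for 90 min, supernatant protein was measured by TMTpro 16plex LC-MS/MS with channel sums equalised.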
# [2] = compound: CCCS(=O)(=O)Nc1ccc(F)c(C(=O)c2c[nH]c3ncc(Cl)cc23)c1F
# Method in brief: as §1
# [3] = compound: CCN(CCCOc1ccc2c(Nc3cc(CC(=O)Nc4cccc(F)c4)[nH]n3)ncnc2c1)CCOP(=O)(O)O [barasertib]
# Method in brief: as §1
# [4] = compound: CC[C@@H]1C(=O)N(C)c2cnc(Nc3ccc(C(=O)NC4CCN(C)CC4)cc3OC)nc2N1C1CCCC1
# Method in brief: as §1
# [5] = compound: CC[C@@H]1C(=O)N(C)c2cnc(Nc3ccc(C(=O)N[C@H]4CC[C@H](N5CCN(CC6CC6)CC5)CC4)cc3OC)nc2N1C(C)C [volasertib]
# Method in brief: as §1
# [6] = compound: CCn1c(C(=O)N(C2CC2)C2CC2)cc2c3c(ncn3C)c(Nc3cc(C)n(C)n3)nc21
# Method in brief: as §1
# [7] = compound: CCn1cc(-c2ccnc3[nH]c(-c4cccc(CN(C)C)c4)cc23)c(-c2ccc(NC(=O)N(C)C)cc2)n1
# Method in brief: as §1
# [8] = compound: CN1CCC(CNc2ccc3ncc(-c4cccc(OC(F)(F)F)c4)n3n2)CC1
# Method in brief: as §1
# [9] = compound: CN1CCN(CCOc2cc(OC3CCOCC3)c3c(Nc4c(Cl)ccc5c4OCO5)ncnc3c2)CC1 [saracatinib]
# Method in brief: as §1
# [10] = compound: CN1CCN(c2nc(C3=C(c4c[nH]c5ccccc45)C(=O)NC3=O)c3ccccc3n2)CC1 [sotrastaurin]
# Method in brief: as §1
Target,log2 fold change [1],log2 fold change [2],log2 fold change [3],log2 fold change [4],log2 fold change [5],log2 fold change [6],log2 fold change [7],log2 fold change [8],log2 fold change [9],log2 fold change [10]
KCTD3 (UniProt Q9Y597),inactive: 0.009,inactive: 0.016,inactive: 0.078,inactive: 0.063,inactive: 0.024,inactive: -0.03,inactive: -0.005,inactive: 0.021,inactive: 0.004,inactive: 0.061
ITFG1 (UniProt Q8TB96),inactive: 0.015,inactive: -0.009,inactive: 0.06,inactive: 0.103,inactive: -0.047,inactive: 0.006,inactive: -0.075,inactive: 0.11,inactive: 0.042,inactive: -0.006
KAT6B (UniProt Q8WYB5),inactive: -0.025,inactive: 0.036,inactive: -0.03,inactive: 0.045,inactive: 0.026,inactive: -0.054,inactive: 0.055,inactive: 0.051,inactive: 0.139,inactive: -0.075
ITGB1BP1 (UniProt O14713),inactive: -0.057,inactive: 0.107,inactive: 0.192,inactive: -0.077,inactive: -0.108,inactive: 0.01,inactive: 0.108,inactive: 0.078,inactive: 0.018,–
ISOC1 (UniProt Q96CN7),inactive: -0.066,inactive: -0.025,inactive: -0.007,inactive: -0.045,inactive: 0.035,inactive: -0.044,inactive: -0.057,inactive: 0.042,inactive: 0.01,inactive: 0.012
KAT7 (UniProt O95251),inactive: 0.062,inactive: 0.024,inactive: 0.084,inactive: 0.022,inactive: 0.013,inactive: -0.132,inactive: -0.285,inactive: 0.073,inactive: 0.095,inactive: -0.014
INTS8 (UniProt Q75QN2),inactive: 0.016,inactive: 0.02,inactive: -0.131,inactive: -0.024,inactive: -0.061,inactive: 0.041,inactive: -0.075,inactive: 0.037,inactive: 0.09,inactive: 0.084
ISOC2 (UniProt Q96AB3),inactive: 0.048,inactive: 0.033,inactive: -0.12,inactive: 0.096,inactive: 0.013,inactive: -0.043,inactive: 0.02,inactive: -0.08,inactive: -0.047,inactive: 0.002
IRF2BP1 (UniProt Q8IU81),inactive: 0.015,inactive: 0.023,inactive: -0.003,inactive: 0.026,inactive: -0.088,inactive: 0.014,inactive: 0.037,inactive: -0.06,inactive: 0,inactive: 0.01
KDM1A (UniProt O60341),inactive: 0.021,inactive: 0.004,inactive: 0.014,inactive: -0.011,inactive: -0.046,inactive: -0.011,inactive: -0.065,inactive: -0.016,inactive: -0.001,inactive: 0.005
KBTBD4 isoform 2 (UniProt Q9NVX7),inactive: 0,inactive: 0.021,inactive: 0.013,inactive: 0.063,inactive: -0.022,inactive: 0.031,inactive: -0.04,inactive: -0.032,inactive: 0.086,inactive: 0.032
IRF3 (UniProt Q14653),inactive: 0.03,inactive: 0.023,inactive: 0.02,inactive: -0.051,inactive: -0.018,inactive: -0.002,inactive: -0.007,inactive: 0.014,inactive: -0.006,inactive: 0
ISY1 isoform 1 (UniProt Q9ULR0),inactive: -0.186,inactive: 0.034,inactive: 0.018,inactive: 0.066,inactive: -0.025,inactive: -0.012,inactive: -0.101,inactive: 0.02,inactive: 0.026,inactive: 0.032
INTS9 (UniProt Q9NV88),inactive: 0.01,inactive: 0.02,inactive: -0.033,inactive: -0.001,inactive: 0.01,inactive: 0.004,inactive: -0.142,inactive: 0.072,inactive: -0.007,inactive: 0.013
ITCH (UniProt Q96J02),inactive: 0.025,inactive: 0.027,inactive: -0.009,inactive: -0.082,inactive: -0.023,inactive: 0.008,inactive: -0.083,inactive: 0.018,inactive: 0.029,inactive: 0.083
KANSL3 (UniProt Q9P2N6),inactive: -0.006,inactive: 0.107,inactive: -0.098,inactive: 0.022,inactive: -0.002,inactive: 0.03,inactive: -0.016,inactive: 0.01,inactive: -0.182,inactive: 0.125
JAGN1 (UniProt Q8N5M9),inactive: 0.018,inactive: -0.001,inactive: 0,inactive: -0.031,inactive: 0.087,inactive: -0.035,inactive: 0.015,inactive: 0.042,inactive: 0.077,inactive: -0.108
JMJD1C (UniProt Q15652),inactive: 0.017,inactive: 0.057,inactive: -0.021,inactive: 0.039,inactive: -0.002,inactive: 0.037,inactive: 0.037,inactive: -0.002,inactive: 0.034,inactive: 0.008
IPO7 (UniProt O95373),inactive: -0.001,inactive: 0.005,inactive: -0.032,inactive: 0.001,inactive: 0.001,inactive: -0.017,inactive: -0.106,inactive: 0.097,inactive: 0.002,inactive: 0.005
KDELR1 (UniProt P24390),inactive: 0.038,inactive: -0.014,inactive: -0.072,inactive: 0.09,inactive: 0.135,inactive: -0.024,inactive: -0.203,inactive: 0.042,inactive: 0.047,inactive: 0.084
KCMF1 (UniProt Q9P0J7),inactive: -0.005,inactive: -0.012,inactive: 0.021,inactive: 0.001,inactive: 0.009,inactive: -0.029,inactive: -0.038,inactive: 0.035,inactive: 0.022,inactive: 0.001
IREB2 (UniProt P48200),inactive: 0.006,inactive: 0.012,inactive: -0.003,inactive: 0.013,inactive: -0.072,inactive: -0.007,inactive: -0.022,inactive: -0.014,inactive: 0.003,inactive: 0.011
JMJD6 isoform 3 (UniProt Q6NYC1),inactive: 0.011,inactive: 0.01,inactive: 0.006,inactive: -0.09,inactive: 0.029,inactive: 0.009,inactive: 0.03,inactive: -0.032,inactive: 0.028,inactive: 0.015
IWS1 (UniProt Q96ST2),inactive: -0.004,inactive: 0.027,inactive: -0.024,inactive: 0.112,inactive: -0.018,inactive: -0.013,inactive: 0.021,inactive: -0.007,inactive: 0.018,inactive: 0.003
KATNA1 (UniProt O75449),inactive: 0.091,inactive: -0.002,inactive: 0.033,inactive: 0.019,inactive: -0.03,inactive: 0.007,inactive: 0.069,inactive: -0.077,inactive: -0.012,inactive: 0.049
IPO5 isoform 3 (UniProt O00410),inactive: 0.008,inactive: 0.008,inactive: -0.036,inactive: -0.006,inactive: 0.012,inactive: 0.027,inactive: 0.02,inactive: 0.008,inactive: -0.018,inactive: -0.015
IP6K1 (UniProt Q92551),inactive: 0.013,inactive: 0.031,inactive: -0.172,inactive: -0.01,inactive: -0.114,inactive: 0.077,inactive: -0.113,inactive: 0,inactive: 0.126,inactive: 0.071
ITSN1 isoform 8 (UniProt Q15811),inactive: -0.002,inactive: -0.012,inactive: 0.013,inactive: 0.105,inactive: 0.035,inactive: 0.064,inactive: 0.037,inactive: -0.044,inactive: 0.013,inactive: -0.021
ISCA1 isoform 2 (UniProt Q9BUE6),inactive: 0.007,inactive: -0.059,inactive: 0.028,inactive: 0.042,inactive: 0.03,inactive: -0.051,active: 0.425,inactive: -0.21,inactive: 0.028,inactive: 0.021
INTS4 (UniProt Q96HW7),inactive: 0.023,inactive: -0.012,inactive: 0.015,inactive: -0.004,inactive: 0.003,inactive: -0.001,inactive: -0.025,inactive: -0.044,inactive: 0.023,inactive: 0.022

# Limited to log2 fold change [4] and log2 fold change [2], for some of the entries so far:
Target,log2 fold change [4],log2 fold change [2]
IWS1 (UniProt Q96ST2),inactive: 0.112,inactive: 0.027
KATNA1 (UniProt O75449),inactive: 0.019,inactive: -0.002

# Retrieved one by one from above, 2 records:
Target,log2 fold change [1],log2 fold change [2],log2 fold change [3],log2 fold change [4],log2 fold change [5],log2 fold change [6],log2 fold change [7],log2 fold change [8],log2 fold change [9],log2 fold change [10]
KATNA1 (UniProt O75449),inactive: 0.091,inactive: -0.002,inactive: 0.033,inactive: 0.019,inactive: -0.03,inactive: 0.007,inactive: 0.069,inactive: -0.077,inactive: -0.012,inactive: 0.049
KAT6B (UniProt Q8WYB5),inactive: -0.025,inactive: 0.036,inactive: -0.03,inactive: 0.045,inactive: 0.026,inactive: -0.054,inactive: 0.055,inactive: 0.051,inactive: 0.139,inactive: -0.075
